Experimental data: PubChem BioAssay AID624291 (National Center for Advancing Translational Sciences (NCATS), 2012)
Out of some 350,000 compounds screened, about 220 (0.063%) were called active. Inconclusive results, whose numbers are uncertain, are shown with a selection of clear calls. Calls come from the whole dose curve; as a rule, active = well fitted activation curve with a large enough effect; inconclusive = small, poorly fitted or top-dose-only effect; inactive = no such curve, though single readings can be large or run the other way. Potencies of inconclusive entries are doubtful fits and often do not repeat.

Experiment: qHTS for Activators of Integrin-Mediated Alleviation for Muscular Dystrophy; note: nearly all actives have a fitted effect of over 60% in size;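 for activation: 100% = response of the positive control SU9516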
Conditions: alpha7betagal myoblasts, beta-gal FDG fluorescence, 48 h; activation: at 38.3 µM (top of the series)
In short: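 alpha7betagal+/- myoblasts (passage 13, 250/well) treated 48 h at 37C with compounds at 1:260 dilution of DMSO stock. Lysed, then beta-galactosidase activity read as FDG fluorescence (ex 480/em 540) after 30 min, with pre-read for autofluorescence.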
Potency is the fitted concentration of half-maximal effect.

| Compound | Potency | activation |
| --- | --- | --- |
| COc1cc(C(=O)N2CCN(c3ncnc4sc(C)c(C)c34)CC2)cc(OC)c1OC | inactive |  |
| Cc1ccc(-n2nnnc2SCC(=O)N2CCNC2=O)cc1C | inconclusive: 10 µM [activator, partial curve, poor fit] |  |
| COc1cccc(CN(C)C(=O)CSc2nc3ccccc3[nH]2)c1OC | inconclusive: 2.82 µM [activator, single point] |  |
| CN(C)S(=O)(=O)c1ccc(C(=O)NCCOc2ccc(F)cc2)cc1 | inactive |  |
| COCCN1Cc2cccc(C(=O)Nc3cccc(OC)c3)c2C1=O | inconclusive: 28.2 µM [activator, single point] |  |
| CCOC(=O)CN1C(=O)/C(=C2\SC(=S)N(NC(=O)c3cccnc3)C2=O)c2ccccc21 | inconclusive: 10 µM [activator, partial curve] |  |
| Cc1nn(-c2ccc(C(=O)OC(C)C)cc2)c(C)c1[N+](=O)[O-] | inactive |  |
| COC(=O)CCCn1nc(NC(=O)COc2ccc(F)cc2)cc1C | inconclusive: 11.2 µM [activator, single point] |  |
| C[C@H](C(=O)CC(=O)OC(C)(C)C)[C@H](O)c1ccccc1 | inconclusive: 5.01 µM [activator, single point] |  |
| O=C(Cn1nnc(-c2ccc(Cl)cc2)n1)N1CCN(C(=O)c2ccco2)CC1 | inconclusive: 5.01 µM [activator, single point] |  |
| COc1ccc(C2c3ccc(O)cc3Oc3ncn(CCCO)c(=N)c32)cc1OC (centres undefined) | inconclusive: 28.2 µM [activator, single point] |  |
| CC(c1ccncn1)N(C)Cc1nc(Cc2ccccc2F)no1 (centres undefined) | inactive |  |
| CCC1CCCCN1C(=S)NCc1ccccc1 (centres undefined) | inconclusive: 3.55 µM [activator, single point] |  |
| CCCn1c(=N)c(S(=O)(=O)c2ccc(F)cc2)cc2c(=O)n3ccccc3nc21 | inconclusive: 22.4 µM [activator, single point] |  |
| O=[N+]([O-])c1ccc(O)c(/C=N/n2c(CO)nc3ccccc32)c1 | inconclusive: 11.2 µM [activator, single point] |  |
| CCN1C/C(=C/c2sccc2C)c2nc3ccccc3c(C(=O)O)c2C1 | inconclusive: 2.24 µM [activator, partial curve, poor fit] |  |
| CCOc1cc(C(C(=O)NCC2CCCO2)N(C(=O)Cn2nnc3ccccc32)c2ccccc2OC)ccc1O (centres undefined) | inconclusive: 2.82 µM [activator, partial curve, poor fit] |  |
| CC(=O)N1CCN(c2cc3c(cc2F)c(=O)c(C(=O)O)cn3C2CC2)CC1 | inconclusive: 28.2 µM [activator, single point] |  |
| Cc1cc(C)cc(N2C(=O)CSC2c2ccccn2)c1 (centres undefined) | inconclusive: 0.501 µM [activator, full curve, poor fit] |  |
| CCCC(=O)c1ccc(N2CCN(C(=O)c3cccs3)CC2)c(F)c1 | inconclusive: 5.01 µM [activator, single point] |  |
| Cc1cc(C(=O)NC(CC(C)C)C(=O)O)cc(C)c1[N+](=O)[O-] (centres undefined) | inconclusive: 5.62 µM [activator, partial curve, poor fit] |  |
| Cc1ncsc1C(=O)Nc1cccc(C(F)(F)F)c1 | inconclusive: 28.2 µM [activator, single point] |  |
| CCN(CC)C(=O)Cn1cc(C(=O)C(=O)N2CCN(c3ccccc3)CC2)c2ccccc21 | inconclusive: 11.2 µM [activator, single point] |  |

An excerpt of these results, as tab-separated lines:
Compound	Potency	activation
CCCn1c(=N)c(S(=O)(=O)c2ccc(F)cc2)cc2c(=O)n3ccccc3nc21	inconclusive: 22.4 µM [activator, single point]	
O=[N+]([O-])c1ccc(O)c(/C=N/n2c(CO)nc3ccccc32)c1	inconclusive: 11.2 µM [activator, single point]	
CCN1C/C(=C/c2sccc2C)c2nc3ccccc3c(C(=O)O)c2C1	inconclusive: 2.24 µM [activator, partial curve, poor fit]	
CCOc1cc(C(C(=O)NCC2CCCO2)N(C(=O)Cn2nnc3ccccc32)c2ccccc2OC)ccc1O (centres undefined)	inconclusive: 2.82 µM [activator, partial curve, poor fit]	

Further entries follow.

| Compound | Potency | activation |
| --- | --- | --- |
| Cc1nc2ccccc2[nH]c1=O | inconclusive: 22.4 µM [activator, single point] |  |
| COc1ccc(C2C(C(=O)c3ccc(C)o3)=C(O)C(=O)N2c2cc(C)on2)cc1OC (centres undefined) | inactive |  |
| Brc1cc2c(cc1Cn1c(-c3cncs3)nc3ccccc31)OCO2 | inactive |  |
| Cc1ccc(/C=N/NC(=O)C(=O)N/N=C/c2ccc(C)o2)o1 | inconclusive: 5.01 µM [activator, single point] |  |
| Cc1ccc2c(c1)N(C(C)C(=O)NCc1ccc3c(c1)OCO3)C(=O)CO2 (centres undefined) | inconclusive: 2.82 µM [activator, single point] |  |
| Cc1cc(C)n2nc(C(=O)N3CCCC(Nc4ccc(C(C)C)cc4)C3)cc2n1 (centres undefined) | inconclusive: 1.78 µM [activator, single point] |  |
| O=C(CN1C(=O)CCSc2ccccc21)NC1CCCCC1 | inconclusive: 28.2 µM [activator, single point] |  |
| COc1cccc(CN2CC(C(=O)N3CCCCCC3)CCC2=O)c1 (centres undefined) | inconclusive: 2.82 µM [activator, partial curve, poor fit] |  |
| COc1ccc(/C=N/NC(=O)c2cc(-c3cccc(C)c3)nc3ccccc23)cc1O | inconclusive: 5.01 µM [activator, single point] |  |
| S=C(NCCCc1ccccc1)NC1CCCCC1 | inactive |  |
| Cc1cccc(OCc2nnc(SCc3cc(=O)[nH]c4ccccc34)n2-c2ccccc2)c1 | inconclusive: 28.2 µM [activator, single point] |  |
| Cc1ccc(Cn2c(C(C)Nc3nc(-c4ccc(F)cc4)cs3)nc3cc(C(F)(F)F)ccc32)cc1 (centres undefined) | inactive |  |
| CCOc1ccc(N(C(C)=O)c2nc(C)cc(C)c2C#N)cc1 | inactive |  |
| CCOc1cc(/C=C2\C(=N)N3N=C(S(C)(=O)=O)SC3=NC2=O)ccc1OCCOc1cccc(OC)c1 | inconclusive: 2.82 µM [activator, partial curve, poor fit] |  |
| CN(C)S(=O)(=O)Oc1ccccc1C(=O)Nc1ccc(F)cc1F | inconclusive: 5.01 µM [activator, single point] |  |
| CCOc1ccc2nc3cc(NCc4ccc(OC)cc4)ccc3c(N)c2c1 | inactive |  |
| N/C(=N\C(=S)Nc1ccccc1)c1ccccc1 | inconclusive: 1 µM [activator, single point] |  |
| O=C(COc1ccc(Br)cc1)N1CCNC1=O | inactive |  |
| Cc1ccc(C(C)C)c(OCCNCCc2ccccc2)c1 | inactive |  |
| Cc1ccc(Nc2ncnc3sc(C)c(C)c23)cc1C | inactive |  |
| COc1cc(C(=O)Nc2ccc3oc(-c4cccnc4)nc3c2)cc(OC)c1OC | inactive |  |
| CCCC(=O)OCC(=O)c1[nH]c(C)c(C(C)=O)c1C | inconclusive: 10 µM [activator, partial curve, poor fit] |  |
| CCOc1ccc(NC(=S)NC(=O)c2cnn(CC)c2)c([N+](=O)[O-])c1 | inconclusive: 28.2 µM [activator, single point] |  |

| Compound | Potency | activation |
| --- | --- | --- |
| CCc1c(C(C)=O)oc2ccc3c(C)cc(=O)oc3c12 | inconclusive: 3.16 µM [activator, single point] |  |
| O=C(Nc1nc(-c2ccccc2)cs1)c1ccc(N2CCOCC2)c([N+](=O)[O-])c1 | inactive |  |
| COc1cccc(OCc2nc(-c3cccc([N+](=O)[O-])c3)no2)c1 | inconclusive: 8.91 µM [activator, partial curve, poor fit] |  |
| COc1ccc(CN(C)C(=O)c2ccc(NC(=O)CC3SC(N4CCCCC4)=NC3=O)cc2)c(OC)c1 (centres undefined) | inactive |  |
| O=C(CNCc1ccco1)Nc1ccc(Oc2ccccc2)cc1 | inconclusive: 3.55 µM [activator, partial curve, poor fit] |  |
| CCC(CC)NC(=O)Nc1cccc(C)c1C |  | inconclusive: 66.2% [activator] |
| COc1ccc(C(=O)N(C)CC(O)c2ccccc2)cc1OC1CCN(C(C)=O)CC1 (centres undefined) | inconclusive: 5.01 µM [activator, single point] |  |
| Cc1cc(Cl)cc(C)c1OCC(=O)N1CCN(c2ncccn2)CC1 | inconclusive: 5.01 µM [activator, single point] |  |
| Cc1ccc(C(OC(=O)c2ccco2)C(=O)NC2CCCC2)cc1 (centres undefined) | inconclusive: 2 µM [activator, partial curve, poor fit] |  |
| CCCCCCC1CC(=O)NC(=O)N1 (centres undefined) | inconclusive: 8.91 µM [activator, partial curve] |  |
| O=C(NCc1cccnc1)c1cc(-c2ccc(Cl)cc2)oc1C(F)(F)F | inactive |  |
| O=C(C1CC(=O)N(c2ccc(Cl)cc2)C1)N1CCCCCC1 (centres undefined) | inconclusive: 3.98 µM [activator, single point] |  |
| O=C(CS(=O)(=O)c1ccccc1)Nc1ccccn1 | inconclusive: 2.82 µM [activator, single point] |  |
| Cc1ccc(S(=O)(=O)c2c(C)nn(-c3ccccc3)c2OC(=O)c2ccc(Br)o2)cc1 | inconclusive: 5.01 µM [activator, single point] |  |
| COc1ccc(C2C=C(c3ccc(F)cc3)NC(=S)N2)cc1OC (centres undefined) | inconclusive: 12.6 µM [activator, partial curve, poor fit] |  |
| CCOCCCNc1nc(=S)[nH]c2cc(OC)c(OC)cc12 | inactive |  |
| O=C(NCc1ccco1)c1ccc2ccccc2c1 | inactive |  |
| O=C(NCCCN1CCN(Cc2ccccc2)CC1)C1CCN(c2nnc(-n3cccc3)s2)CC1 | inactive |  |
| CN(C)S(=O)(=O)N1CCC(Oc2ccc(C(=O)NCC(C)(C)CO)cc2)CC1 | inconclusive: 2.51 µM [activator, single point] |  |
| CC(=O)NCCNC(=O)c1ccc(Sc2ccccc2)c([N+](=O)[O-])c1 | inactive |  |
| COc1ccc(Cn2c(-c3ccc(OC)cc3)n[nH]c2=S)cc1 | inactive |  |
| Cc1ccccc1N1CC(=O)Nc2c(oc3nc(-c4ccccc4)cc(C)c23)C1=O | inconclusive: 0.447 µM [activator, partial curve, poor fit] |  |
| CCN(CC)C(=O)CSc1nc2c(sc(=S)n2-c2ccccc2)c(=O)n1-c1ccc(OC)c(OC)c1 | inconclusive: 2.82 µM [activator, single point] |  |
